# Structures can show the parent of a compound that is named as a salt. The list shows a part of the results. Most values lie at the level of the controls, where differences are scatter.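 Melting temperature was read by differential scanning fluorimetry in a single-replicate pilot screen of a library of approved drugs and clinical or known-target compounds. Compounds raising the melting point by at least 2 °C were the top stabilizing hits, and negative shifts mean destabilization.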
# Tested on: SARS-CoV-2 main protease (Mpro, nsp5)
# Test: thermal shift ΔTm of Mpro relative to plate average Tm; higher = stronger thermal stabilization of Mpro (binding)
# Conditions: 10 µM; protein concentration 1 µM
row,SMILES,thermal shift ΔTm of Mpro
1,COc1ccccc1C(=O)Nc1cc2c(cc1N1CCCCC1)n(C)c(=O)n2C,0.0347 °C
2,O=C(Nc1cccc2c(=O)cc(-c3nnn[nH]3)oc12)c1ccc(OCCCCc2ccccc2)cc1 [Pranlukast],-0.0624 °C
3,Cn1cc(-c2ccc(F)c(C(F)(F)F)c2)nc1C1CCN(c2ncnc3[nH]ncc23)CC1,0.0762 °C
4,O=C(Nc1c[nH]nc1-c1nc2ccc(CN3CCOCC3)cc2[nH]1)NC1CC1,0.0849 °C
5,CCOC(=O)[C@H](CCc1ccccc1)N[C@H]1CCc2ccccc2N(CC(=O)O)C1=O [Benazepril HCl],0.313 °C
6,Cc1nc(NC(=O)N2CCC[C@H]2C(N)=O)sc1-c1csc(C(C)(C)C)n1,0.0538 °C
7,COC1=C(OC)C(=O)C(CCCCCCCCCCO)=C(C)C1=O [Idebenone],-0.117 °C
8,CN(Cc1ccccc1)c1ccc2cc(C(=O)O)c(=O)oc2c1,0.012 °C
9,C[C@]12CC[C@H]3[C@@H](CC[C@@]45O[C@@H]4C(O)=C(C#N)C[C@]35C)[C@@H]1CC[C@@H]2O [Trilostane],0.312 °C
10,CC1(C)Cc2c(sc(NC(=O)c3ccn[nH]3)c2C(N)=O)C(C)(C)O1,0.154 °C
11,C[C@@H]1C[C@H]2[C@@H]3CCC4=CC(=O)C=C[C@]4(C)[C@@]3(F)[C@@H](O)C[C@]2(C)[C@@]1(O)C(=O)CO [Dexamethasone (DHAP)],0.302 °C
12,OC1(c2ccc(Cl)c(C(F)(F)F)c2)CCN(CCCC(c2ccc(F)cc2)c2ccc(F)cc2)CC1 [Penfluridol],0.0125 °C
13,CC(C)Oc1ccc(C(=O)N[C@H](CNC(=O)CN(C)C)Cc2ccc(-c3cn4cccc([C@H](C)O)c4n3)cc2)cc1Cl,-0.0365 °C
14,O=C(O)COC(=O)Cc1ccccc1Nc1c(Cl)cccc1Cl [Aceclofenac],0.0734 °C
15,Cc1cnc(NC(=O)C2=C(O)c3ccccc3S(=O)(=O)N2C)s1 [Meloxicam],-0.00364 °C
16,CCCC(C)(C)c1ccc2c(c1)OC(C)(C)[C@@H]1CC=C(C)C[C@@H]21,-0.056 °C
17,O=C(O)CCCc1ccccc1 [Sodium Phenylbutyrate],-0.153 °C
18,CC1(C)O[C@@H]2C[C@H]3[C@@H]4CCC5=CC(=O)C=C[C@]5(C)[C@@]4(F)[C@@H](O)C[C@]3(C)[C@]2(C(=O)CO)O1 [Triamcinolone Acetonide],0.0303 °C
19,C[C@H]1CN(C[C@H](Cc2ccccc2)C(=O)NCC(=O)O)CC[C@@]1(C)c1cccc(O)c1 [Alvimopan],0.134 °C
20,COc1ccccc1S(=O)(=O)Nc1ccc2c(c1)CN(C)C(=O)N2,0.327 °C
21,COc1ccccc1-n1c(SCC(=O)Nc2nc3ccc(C)cc3s2)nc2c(c1=O)SCC2,-0.206 °C
22,COc1ccc(CCC(=O)N(c2nccc3ccccc23)[C@@H]2CCCNC2)cc1,-0.117 °C
23,C/C=C\c1cc(OC)c(OC)cc1OC [beta-Asarone],-0.0645 °C
24,ClCC1C(CCl)[C@@]2(Cl)C(Cl)=C(Cl)[C@]1(Cl)C2(Cl)Cl (stereo not given in full) [Alodan],-0.365 °C
25,Cc1nnc(NS(=O)(=O)c2ccc(N)cc2)s1 [Sulfamethizole],0.158 °C

row,SMILES,thermal shift ΔTm of Mpro
1,COc1cc(NS(C)(=O)=O)ccc1Nc1c2ccccc2nc2ccccc12 [Amsacrine],-0.151 °C
2,C[C@@H]1O[C@@H](O[C@H]2C[C@@H](O)[C@]3(CO)[C@H]4[C@H](O)C[C@]5(C)[C@@H](C6=CC(=O)OC6)CC[C@]5(O)[C@@H]4CC[C@]3(O)C2)[C@H](O)[C@H](O)[C@H]1O [Ouabain],-0.0267 °C
3,CCN1CCN(c2cc3c(cc2F)c(=O)c(C(=O)O)cn3C2CC2)CC1 [Enrofloxacin],-0.00901 °C
4,O=C1C2CC3CC1CC(O)(C3)C2 [Kemantane],-0.0428 °C
5,FC(F)c1nc2ccccc2n1-c1nc(N2CCOCC2)nc(N2CCOCC2)n1,0.0927 °C
6,Oc1ccc(OCc2ccccc2)cc1 [Monobenzone],-0.481 °C
7,Cc1cccc(COc2cccc(/C=C3\C(=O)NN(c4ccccc4)C3=O)c2)c1,0.155 °C
8,C[C@H]1C[C@H]2[C@@H]3CCC4=CC(=O)C=C[C@]4(C)[C@@]3(F)[C@@H](O)C[C@]2(C)[C@@]1(O)C(=O)CO [Betamethasone],0.567 °C
9,"NCC(O)c1ccc(O)cc1 (racemic) [(+,-)-Octopamine HCl]",-0.0441 °C
10,"CNC(=O)[C@H](Cc1c[nH]c2ccccc12)NC(=O)[C@@H](CC(=O)NO)CC(C)C [Ilomastat (GM6001, Galardin)]",-0.107 °C
11,C[C@H]1CC[C@H]2[C@H](C)[C@@H]3CC[C@@H]4[C@@H](C[C@H]5[C@H]4C[C@@H](O)[C@H]4C[C@@H](O)CC[C@@]45C)[C@@H]3CN2C1 [Hupehenine],0.0374 °C
12,COc1cc(O)c2c(=O)cc(-c3ccccc3)oc2c1 [Tectochrysin],-0.0805 °C
13,COc1cccc(/C=N/N(C(=O)C(F)(F)F)c2ccc(C)cc2C)c1,0.00901 °C
14,CCCN(CCC)C(=O)C1=Cc2ccc(-c3ccc(C(=O)N4CCCC4)cc3)cc2N=C(N)C1 [Motolimod],-0.252 °C
15,O=C(NCCO[N+](=O)[O-])c1cccnc1 [Nicorandil],0.181 °C
16,Cc1ccc(Cl)c(Nc2ccccc2C(=O)O)c1Cl [Meclofenamate Sodium],-0.0425 °C
17,O=C(c1cn(Cc2cncn2Cc2ccc(Br)cc2)cc1-c1cccc2ccccc12)N1CCOCC1,-0.558 °C
18,CCN1CCN(C(=O)N[C@@H](C(=O)N[C@@H]2C(=O)N3C(C(=O)O)=C(CSc4nnnn4C)CS[C@H]23)c2ccc(O)cc2)C(=O)C1=O [Cefoperazone sodium],0.0734 °C
19,CCN1CCN(C(=O)N[C@@H](C(=O)N[C@@H]2C(=O)N3C(C(=O)O)=C(CSc4nnnn4C)CS[C@H]23)c2ccc(O)cc2)C(=O)C1=O [Cefoperazone],-0.0744 °C
20,CC(C)(Cc1ccc2ccccc2c1)NC[C@@H](O)COc1cccc(Cl)c1C#N,-0.0198 °C
21,CN(C)CCOc1ccc(/C(=C(/CCCl)c2ccccc2)c2ccccc2)cc1 [Toremifene],0.0896 °C
22,CN(C)CCOc1ccc(/C(=C(/CCCl)c2ccccc2)c2ccccc2)cc1 [Toremifene Citrate],-0.0213 °C
23,Cc1cc(/N=N/c2ccc(S(=O)(=O)Nc3ccccn3)cc2)c(N)cc1O,0.36 °C
24,Cc1cc(Nc2ncnc3ccc(-c4ccc(CNCCS(C)(=O)=O)o4)cc23)ccc1Oc1ccn2ncnc2c1,0.192 °C
25,CC(C(=O)O)c1ccc(N2Cc3ccccc3C2=O)cc1 (stereo not given) [Indoprofen],0.0792 °C

# Single values from the entries so far.
# thermal shift ΔTm of Mpro with NCC(O)c1ccc(O)cc1 (racemic) [(+,-)-Octopamine HCl] is entered as -0.0441 °C
# thermal shift ΔTm of Mpro with CNC(=O)[C@H](Cc1c[nH]c2ccccc12)NC(=O)[C@@H](CC(=O)NO)CC(C)C [Ilomastat (GM6001, Galardin)] is entered as -0.107 °C

# Next entries.

row,SMILES,thermal shift ΔTm of Mpro
1,COc1cc(O)c(CC=C(C)C)c(O)c1C(=O)/C=C/c1ccc(O)cc1 [Xanthohumol],0.718 °C
2,Cc1ncc(NC(=O)c2ccc(CN3CCN(C)CC3)c(C(F)(F)F)c2)cc1Nc1nccc(-c2cccnc2)n1 [Flumatinib],-0.00874 °C
3,Cc1cc(C)cc(C(=O)NOCCCCCC(=O)NO)c1,0.181 °C
4,"C=C1CCC2C(/C=C(\C)C(=O)C3(OC(C)=O)CC(C)C(OC(=O)c4ccccc4)C3C1OC(C)=O)C2(C)C (stereo not given) [5,15-Diacetyl-3-benzoyllathyrol]",0.0308 °C
5,O=c1c(-c2ccc(O)cc2)coc2c([C@@H]3O[C@H](CO)[C@@H](O)[C@H](O)[C@H]3O)c(O)ccc12 [Puerarin],-0.059 °C
6,COCCOC(=O)C1=C(C)NC(C)=C(C(=O)OC/C=C/c2ccccc2)C1c1cccc([N+](=O)[O-])c1 (stereo not given) [Cilnidipine],0.124 °C
7,CCOc1nc2cccc(C(=O)O)c2n1Cc1ccc(-c2ccccc2-c2noc(=O)[nH]2)cc1 [Azilsartan],0.167 °C
8,Cc1cc([C@@H](C)Nc2ccccc2C(=O)O)c2nc(N3CCOCC3)cc(=O)n2c1,0.255 °C
9,COc1cc(O)c(C(=O)Nc2nc(C(=O)NCCN(C(C)C)C(C)C)cs2)cc1OC [Acotiamide hydrochloride],-0.0792 °C
10,CC(C)(Oc1ccc(C(=O)c2ccc(Cl)cc2)cc1)C(=O)O [Fenofibric acid],0.0102 °C
11,COc1cc2nccc(Oc3ccc(NC(=O)C4(C(=O)Nc5ccc(F)cc5)CC4)cc3)c2cc1OC,-0.142 °C
12,COc1cc2nccc(Oc3ccc(NC(=O)C4(C(=O)Nc5ccc(F)cc5)CC4)cc3)c2cc1OC [Cabozantinib malate (XL184)],0.143 °C
13,O=C(O)/C=C/c1ccc(Cn2ccnc2)cc1 [Ozagrel],-0.000145 °C
14,O=C(O)/C=C/c1ccc(Cn2ccnc2)cc1 [Ozagrel HCl],0.114 °C
15,O=C1CCc2ccccc2C1 [Beta-Tetralone],-0.172 °C
16,CCCc1nc(C)c2c(=O)nc(-c3cc(S(=O)(=O)N4CCN(CC)CC4)ccc3OCC)[nH]n12 [Vardenafil hydrochloride trihydrate],-0.0401 °C
17,CCCc1nc(C)c2c(=O)nc(-c3cc(S(=O)(=O)N4CCN(CC)CC4)ccc3OCC)[nH]n12 [Vardenafil HCl Trihydrate],0.0757 °C
18,CNC(=O)c1cc(COc2nnc(Nc3ccc(Cl)cc3)c3ccoc23)ccn1 [Telatinib],-0.0164 °C
19,N[C@@H]1CC[C@@H](c2ccc(Cl)c(Cl)c2)c2ccccc21 [Dasotraline hydrochloride],-0.0944 °C
20,Cc1ccc(CN(Cc2ccc(-c3ccccc3S(=O)(=O)NC#N)cc2)C(=O)c2ccccc2Cl)cc1,-0.0829 °C
21,N#Cc1cc(-c2n[nH]c(-c3ccncc3)n2)ccn1 [Topiroxostat],0.159 °C
22,C[N+]1(C)[C@@H]2C[C@@H](OC(=O)[C@H](CO)c3ccccc3)C[C@H]1[C@@H]1O[C@@H]12 [Methscopolamine],0.159 °C
23,C[C@]12CC[C@H](O)C[C@@H]1CC[C@@H]1[C@@H]2CC[C@]2(C)C(=O)CC[C@@H]12 [Epiandrosterone],-0.193 °C
24,COc1ccc(S(=O)(=O)N(C(C)=O)c2ccccc2/C=C/c2cc[n+]([O-])cc2)cc1,0.528 °C
25,COc1ccc2c(c1)C(c1ccc(F)cc1)=C(CN1CCCC1)CO2,-0.0905 °C

# Three entries from above, tab-delimited.
row	SMILES	thermal shift ΔTm of Mpro
4	C=C1CCC2C(/C=C(\C)C(=O)C3(OC(C)=O)CC(C)C(OC(=O)c4ccccc4)C3C1OC(C)=O)C2(C)C (stereo not given) [5,15-Diacetyl-3-benzoyllathyrol]	0.0308 °C
5	O=c1c(-c2ccc(O)cc2)coc2c([C@@H]3O[C@H](CO)[C@@H](O)[C@H](O)[C@H]3O)c(O)ccc12 [Puerarin]	-0.059 °C
6	COCCOC(=O)C1=C(C)NC(C)=C(C(=O)OC/C=C/c2ccccc2)C1c1cccc([N+](=O)[O-])c1 (stereo not given) [Cilnidipine]	0.124 °C

# From the supplement of paper PMC8166895
